Data reported in the supplement of paper PMC8728848.
The other results are listed elsewhere or left out.

Assays:
Experiment in all cases: glycan array binding signal (z-score within array); higher = stronger binding
Details in all cases: glycan notation: IUPAC condensed, linker removed
[1] = target: GlcNAc(a1-4)Gal(b1-3)GlcNAc
Method in brief: (§1)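 Glycan array data came from 3228 arrays in the Consortium for Functional Glycomics database, and only arrays with an available protein sequence were kept. Glycan names were put into IUPAC-condensed notation, and columns mapping to the same glycan were averaged. The binding signal is a within-array Z-score, averaged across arrays of one protein sequence run at different concentrations or buffers and across linkers. A negative Z-score can be read as non-binding.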

[2] = target: GlcNAc(a1-4)Gal(b1-4)GalNAc
Method in brief: as §1

[3] = target: GlcNAc(a1-4)Gal(b1-4)GlcNAc
Method in brief: as §1

[4] = target: GlcNAc(a1-4)Gal(b1-4)GlcNAc(b1-3)Gal(b1-4)Glc
Method in brief: as §1

[5] = target: GlcNAc(a1-4)Gal(b1-4)GlcNAc(b1-3)Gal(b1-4)GlcNAc
Method in brief: as §1

[6] = target: GlcNAc(a1-4)Gal(b1-4)GlcNAc(b1-3)Gal(b1-4)GlcNAc(b1-3)Gal(b1-4)GlcNAc
Method in brief: as §1

[7] = target: GlcNAc(a1-4)Gal(b1-4)GlcNAc(b1-3)Gal(b1-4)[Fuc(a1-3)]GlcNAc(b1-3)Gal(b1-4)[Fuc(a1-3)]GlcNAc
Method in brief: as §1

[8] = target: GlcNAc(a1-6)Gal(b1-4)GlcNAc
Method in brief: as §1

[9] = target: GlcNAc(b1-2)Gal(b1-3)GalNAc
Method in brief: as §1

[10] = target: GlcNAc(b1-2)Man(a1-3)[GlcNAc(b1-2)Man(a1-6)]Man(b1-4)GlcNAc(b1-4)GlcNAc
Method in brief: as §1

[11] = target: GlcNAc(b1-2)Man(a1-3)[GlcNAc(b1-2)Man(a1-6)]Man(b1-4)GlcNAc(b1-4)[Fuc(a1-6)]GlcNAc
Method in brief: as §1

[12] = target: GlcNAc(b1-2)Man(a1-3)[GlcNAc(b1-4)][GlcNAc(b1-2)Man(a1-6)]Man(b1-4)GlcNAc(b1-4)GlcNAc
Method in brief: as §1

[13] = target: GlcNAc(b1-2)Man(a1-3)[GlcNAc(b1-4)][GlcNAc(b1-2)Man(a1-6)]Man(b1-4)GlcNAc(b1-4)[Fuc(a1-6)]GlcNAc
Method in brief: as §1

[14] = target: GlcNAc(b1-2)[GlcNAc(b1-4)]Man(a1-3)[GlcNAc(b1-2)Man(a1-6)]Man(b1-4)GlcNAc(b1-4)GlcNAc
Method in brief: as §1

[15] = target: GlcNAc(b1-2)[GlcNAc(b1-4)]Man(a1-3)[GlcNAc(b1-4)][GlcNAc(b1-2)Man(a1-6)]Man(b1-4)GlcNAc(b1-4)GlcNAc
Method in brief: as §1

[16] = target: GlcNAc(b1-2)[GlcNAc(b1-4)]Man(a1-3)[GlcNAc(b1-4)][GlcNAc(b1-2)[GlcNAc(b1-6)]Man(a1-6)]Man(b1-4)GlcNAc(b1-4)GlcNAc
Method in brief: as §1

[17] = target: GlcNAc(b1-2)[GlcNAc(b1-4)]Man(a1-3)[GlcNAc(b1-4)][GlcNAc(b1-2)[GlcNAc(b1-6)]Man(a1-6)]Man(b1-4)GlcNAc(b1-4)[Fuc(a1-6)]GlcNAc
Method in brief: as §1

[18] = target: GlcNAc(b1-2)[GlcNAc(b1-6)]Man(a1-6)[GlcNAc(b1-2)Man(a1-3)]Man(b1-4)GlcNAc(b1-4)GlcNAc
Method in brief: as §1

[19] = target: GlcNAc(b1-2)[GlcNAc(b1-6)]Man(a1-6)[GlcNAc(b1-2)Man(a1-3)]Man(b1-4)GlcNAc(b1-4)[Fuc(a1-6)]GlcNAc
Method in brief: as §1

[20] = target: GlcNAc(b1-2)[GlcNAc(b1-6)]Man(a1-6)[GlcNAc(b1-4)][GlcNAc(b1-2)Man(a1-3)]Man(b1-4)GlcNAc(b1-4)GlcNAc
Method in brief: as §1

[21] = target: GlcNAc(b1-3)Fuc
Method in brief: as §1

[22] = target: GlcNAc(b1-3)Gal
Method in brief: as §1

[23] = target: GlcNAc(b1-3)Gal(b1-3)GalNAc
Method in brief: as §1

[24] = target: GlcNAc(b1-3)Gal(b1-4)Glc
Method in brief: as §1

[25] = target: GlcNAc(b1-3)Gal(b1-4)GlcNAc
Method in brief: as §1

[26] = target: GlcNAc(b1-3)Gal(b1-4)GlcNAc(b1-2)Man(a1-3)[GlcNAc(b1-3)Gal(b1-4)GlcNAc(b1-2)Man(a1-6)]Man(b1-4)GlcNAc(b1-4)GlcNAc
Method in brief: as §1

[27] = target: GlcNAc(b1-3)Gal(b1-4)GlcNAc(b1-2)Man(a1-3)[GlcNAc(b1-3)Gal(b1-4)GlcNAc(b1-2)Man(a1-6)]Man(b1-4)GlcNAc(b1-4)[Fuc(a1-6)]GlcNAc
Method in brief: as §1

[28] = target: GlcNAc(b1-3)Gal(b1-4)GlcNAc(b1-2)[GlcNAc(b1-3)Gal(b1-4)GlcNAc(b1-6)]Man(a1-6)[GlcNAc(b1-3)Gal(b1-4)GlcNAc(b1-2)Man(a1-3)]Man(b1-4)GlcNAc(b1-4)GlcNAc
Method in brief: as §1

[29] = target: GlcNAc(b1-3)Gal(b1-4)GlcNAc(b1-3)Gal(b1-4)GlcNAc
Method in brief: as §1

[30] = target: GlcNAc(b1-3)Gal(b1-4)GlcNAc(b1-3)Gal(b1-4)GlcNAc(b1-2)Man(a1-3)[GlcNAc(b1-3)Gal(b1-4)GlcNAc(b1-3)Gal(b1-4)GlcNAc(b1-2)Man(a1-6)]Man(b1-4)GlcNAc(b1-4)GlcNAc
Method in brief: as §1

[31] = target: GlcNAc(b1-3)Gal(b1-4)GlcNAc(b1-3)Gal(b1-4)GlcNAc(b1-2)Man(a1-3)[GlcNAc(b1-3)Gal(b1-4)GlcNAc(b1-3)Gal(b1-4)GlcNAc(b1-2)Man(a1-6)]Man(b1-4)GlcNAc(b1-4)[Fuc(a1-6)]GlcNAc
Method in brief: as §1

[32] = target: GlcNAc(b1-3)Gal(b1-4)GlcNAc(b1-3)Gal(b1-4)GlcNAc(b1-2)[GlcNAc(b1-3)Gal(b1-4)GlcNAc(b1-3)Gal(b1-4)GlcNAc(b1-6)]Man(a1-6)[GlcNAc(b1-3)Gal(b1-4)GlcNAc(b1-3)Gal(b1-4)GlcNAc(b1-2)Man(a1-3)]Man(b1-4)GlcNAc(b1-4)[Fuc(a1-6)]GlcNAc
Method in brief: as §1

[33] = target: GlcNAc(b1-3)Gal(b1-4)GlcNAc(b1-3)Gal(b1-4)GlcNAc(b1-3)Gal(b1-4)GlcNAc(b1-2)Man(a1-3)[GlcNAc(b1-3)Gal(b1-4)GlcNAc(b1-3)Gal(b1-4)GlcNAc(b1-3)Gal(b1-4)GlcNAc(b1-2)Man(a1-6)]Man(b1-4)GlcNAc(b1-4)GlcNAc
Method in brief: as §1

[34] = target: GlcNAc(b1-3)Gal(b1-4)GlcNAc(b1-3)Gal(b1-4)GlcNAc(b1-3)Gal(b1-4)GlcNAc(b1-2)Man(a1-3)[GlcNAc(b1-3)Gal(b1-4)GlcNAc(b1-3)Gal(b1-4)GlcNAc(b1-3)Gal(b1-4)GlcNAc(b1-2)Man(a1-6)]Man(b1-4)GlcNAc(b1-4)[Fuc(a1-6)]GlcNAc
Method in brief: as §1

[35] = target: GlcNAc(b1-3)Gal(b1-4)GlcNAc(b1-3)Gal(b1-4)GlcNAc(b1-3)Gal(b1-4)GlcNAc(b1-2)[GlcNAc(b1-3)Gal(b1-4)GlcNAc(b1-3)Gal(b1-4)GlcNAc(b1-3)Gal(b1-4)GlcNAc(b1-6)]Man(a1-6)[GlcNAc(b1-3)Gal(b1-4)GlcNAc(b1-3)Gal(b1-4)GlcNAc(b1-3)Gal(b1-4)GlcNAc(b1-2)Man(a1-3)]Man(b1-4)GlcNAc(b1-4)[Fuc(a1-6)]GlcNAc
Method in brief: as §1

[36] = target: GlcNAc(b1-3)Gal(b1-4)GlcNAc(b1-3)Gal(b1-4)GlcNAc(b1-3)Gal(b1-4)GlcNAc(b1-3)Gal(b1-4)GlcNAc(b1-2)Man(a1-3)[GlcNAc(b1-3)Gal(b1-4)GlcNAc(b1-3)Gal(b1-4)GlcNAc(b1-3)Gal(b1-4)GlcNAc(b1-3)Gal(b1-4)GlcNAc(b1-2)Man(a1-6)]Man(b1-4)GlcNAc(b1-4)GlcNAc
Method in brief: as §1

[37] = target: GlcNAc(b1-3)Gal(b1-4)GlcNAc(b1-3)Gal(b1-4)GlcNAc(b1-3)Gal(b1-4)GlcNAc(b1-3)Gal(b1-4)GlcNAc(b1-2)Man(a1-3)[GlcNAc(b1-3)Gal(b1-4)GlcNAc(b1-3)Gal(b1-4)GlcNAc(b1-3)Gal(b1-4)GlcNAc(b1-3)Gal(b1-4)GlcNAc(b1-2)Man(a1-6)]Man(b1-4)GlcNAc(b1-4)[Fuc(a1-6)]GlcNAc
Method in brief: as §1

[38] = target: GlcNAc(b1-3)Gal(b1-4)GlcNAc(b1-3)Gal(b1-4)GlcNAc(b1-3)Gal(b1-4)GlcNAc(b1-3)Gal(b1-4)GlcNAc(b1-2)[GlcNAc(b1-3)Gal(b1-4)GlcNAc(b1-3)Gal(b1-4)GlcNAc(b1-3)Gal(b1-4)GlcNAc(b1-3)Gal(b1-4)GlcNAc(b1-6)]Man(a1-6)[GlcNAc(b1-3)Gal(b1-4)GlcNAc(b1-3)Gal(b1-4)GlcNAc(b1-3)Gal(b1-4)GlcNAc(b1-3)Gal(b1-4)GlcNAc(b1-2)Man(a1-3)]Man(b1-4)GlcNAc(b1-4)[Fuc(a1-6)]GlcNAc
Method in brief: as §1

B1: Nc3LysM-2 (protein)
chain: AHVLQARQSVSCDFATAANTGDTCASFAAAWGITEAAFAKLNPGVSCPGNLIAGSEYCVIGTVSTGAPTTTKAATTSTTPPTTTTTTKATTLSTSTTSVSPTGPSPQMPSITSTCNKFYQVQSGDGCWSIEQAQGVSASDFMAWNKAVDAQCDNLWLGYYVCVGVKGGSSPPPTTTTKPASSSAPTPQMPNTVSNCKKFHKVVSGDGCWAIEQAAGISASDFAKWNPYVDAACDNLWLGYYVCIGV
- glycan array binding signal (z-score) [1]: -0.118
- glycan array binding signal (z-score) [2]: 1.48
- glycan array binding signal (z-score) [3]: -0.277
- glycan array binding signal (z-score) [4]: -1.01
- glycan array binding signal (z-score) [5]: 0.216
- glycan array binding signal (z-score) [6]: -0.569
- glycan array binding signal (z-score) [7]: 1.78
- glycan array binding signal (z-score) [8]: 1.22
- glycan array binding signal (z-score) [9]: -0.514
- glycan array binding signal (z-score) [10]: 0.834
- glycan array binding signal (z-score) [11]: -0.159
- glycan array binding signal (z-score) [12]: -0.01
- glycan array binding signal (z-score) [13]: -0.543
- glycan array binding signal (z-score) [14]: -0.01
- glycan array binding signal (z-score) [15]: 0.665
- glycan array binding signal (z-score) [16]: 1.71
- glycan array binding signal (z-score) [17]: -0.569
- glycan array binding signal (z-score) [18]: -1.22
- glycan array binding signal (z-score) [19]: 1.11
- glycan array binding signal (z-score) [20]: 0.849
- glycan array binding signal (z-score) [21]: -0.531
- glycan array binding signal (z-score) [22]: -0.043
- glycan array binding signal (z-score) [23]: -0.395
- glycan array binding signal (z-score) [24]: -1.54
- glycan array binding signal (z-score) [25]: 1.5
- glycan array binding signal (z-score) [26]: 0.484
- glycan array binding signal (z-score) [27]: -1.78
- glycan array binding signal (z-score) [28]: 0.064
- glycan array binding signal (z-score) [29]: 0.247
- glycan array binding signal (z-score) [30]: -0.123
- glycan array binding signal (z-score) [31]: 3.4
- glycan array binding signal (z-score) [32]: 0.806
- glycan array binding signal (z-score) [33]: -0.959
- glycan array binding signal (z-score) [34]: -0.33
- glycan array binding signal (z-score) [35]: 0.309
- glycan array binding signal (z-score) [36]: -0.307
- glycan array binding signal (z-score) [37]: 1.71
- glycan array binding signal (z-score) [38]: 0.213
